Assay results: PMC6094050, “O-GlcNAcylation Signal Mediates Proteasome Inhibitor Resistance in Cancer Cells by Stabilizing NRF1” (Molecular and Cellular Biology, 2018)
Results are given in words; binding and its absence hold for the method and conditions named. For some of these results: In cells and extracts the contact can be indirect. Where a sequence is shown, tags or fusion partners need not be part of it.

Legend:
[1] = target: 3×FLAG-mNRF1 M1 (Δ464–580) (mouse) (UniProt Q61985); test: co-IP; soluble nuclear extracts of 293F cells that stably express FLAG-tagged NRF1 or its deletion mutants, precipitated with anti-FLAG antibody; immunoblot for OGT, HCF-1 and FLAG
[2] = target: 3×FLAG-mNRF1 M2 (Δ243-580) (mouse) (UniProt Q61985); test: as above
[3] = target: T1, GST-OGT (GST fusion of full-length human O-linked N-acetylglucosamine transferase) (human) (UniProt O15294); test: pull-down; glutathione-Sepharose-immobilized GST-OGT and GST–HCF-1-C incubated with recombinant His6-tagged NRF1 fragments Fr. 1 and Fr. 2; washed extensively with PBS-T; immunoblot with anti-His6 and anti-GST; both purified
T1 sequence: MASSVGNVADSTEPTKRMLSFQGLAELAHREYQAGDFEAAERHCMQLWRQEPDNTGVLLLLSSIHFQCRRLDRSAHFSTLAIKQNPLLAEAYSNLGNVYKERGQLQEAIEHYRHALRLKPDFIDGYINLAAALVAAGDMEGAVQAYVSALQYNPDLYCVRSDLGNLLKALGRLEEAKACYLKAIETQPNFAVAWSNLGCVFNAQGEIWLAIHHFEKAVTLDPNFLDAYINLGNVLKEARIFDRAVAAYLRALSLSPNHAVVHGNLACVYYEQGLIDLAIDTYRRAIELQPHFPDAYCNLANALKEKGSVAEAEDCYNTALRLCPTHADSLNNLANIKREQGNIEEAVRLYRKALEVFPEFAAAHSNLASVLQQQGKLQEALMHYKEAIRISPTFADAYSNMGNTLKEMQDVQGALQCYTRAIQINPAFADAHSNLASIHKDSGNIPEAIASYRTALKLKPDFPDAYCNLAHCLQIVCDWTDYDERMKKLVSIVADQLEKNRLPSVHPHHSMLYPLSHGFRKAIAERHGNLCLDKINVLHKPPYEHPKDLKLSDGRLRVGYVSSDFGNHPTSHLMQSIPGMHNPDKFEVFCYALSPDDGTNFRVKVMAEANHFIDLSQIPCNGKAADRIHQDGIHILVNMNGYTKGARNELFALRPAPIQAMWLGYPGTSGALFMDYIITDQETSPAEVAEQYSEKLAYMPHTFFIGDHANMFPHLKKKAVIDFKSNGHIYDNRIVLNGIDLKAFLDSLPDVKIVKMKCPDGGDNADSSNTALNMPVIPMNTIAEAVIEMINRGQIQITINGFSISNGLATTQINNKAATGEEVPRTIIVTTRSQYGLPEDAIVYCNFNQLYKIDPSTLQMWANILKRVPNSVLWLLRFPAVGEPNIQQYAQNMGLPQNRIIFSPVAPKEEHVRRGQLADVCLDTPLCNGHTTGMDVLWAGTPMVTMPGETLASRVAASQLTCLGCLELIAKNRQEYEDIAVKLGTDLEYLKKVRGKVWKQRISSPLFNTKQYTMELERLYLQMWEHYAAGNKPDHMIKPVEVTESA

B1: O-linked N-acetylglucosamine transferase (OGT), endogenous (enzyme, UniProt O15294 1-1046)
chain: MASSVGNVADSTEPTKRMLSFQGLAELAHREYQAGDFEAAERHCMQLWRQEPDNTGVLLLLSSIHFQCRRLDRSAHFSTLAIKQNPLLAEAYSNLGNVYKERGQLQEAIEHYRHALRLKPDFIDGYINLAAALVAAGDMEGAVQAYVSALQYNPDLYCVRSDLGNLLKALGRLEEAKACYLKAIETQPNFAVAWSNLGCVFNAQGEIWLAIHHFEKAVTLDPNFLDAYINLGNVLKEARIFDRAVAAYLRALSLSPNHAVVHGNLACVYYEQGLIDLAIDTYRRAIELQPHFPDAYCNLANALKEKGSVAEAEDCYNTALRLCPTHADSLNNLANIKREQGNIEEAVRLYRKALEVFPEFAAAHSNLASVLQQQGKLQEALMHYKEAIRISPTFADAYSNMGNTLKEMQDVQGALQCYTRAIQINPAFADAHSNLASIHKDSGNIPEAIASYRTALKLKPDFPDAYCNLAHCLQIVCDWTDYDERMKKLVSIVADQLEKNRLPSVHPHHSMLYPLSHGFRKAIAERHGNLCLDKINVLHKPPYEHPKDLKLSDGRLRVGYVSSDFGNHPTSHLMQSIPGMHNPDKFEVFCYALSPDDGTNFRVKVMAEANHFIDLSQIPCNGKAADRIHQDGIHILVNMNGYTKGARNELFALRPAPIQAMWLGYPGTSGALFMDYIITDQETSPAEVAEQYSEKLAYMPHTFFIGDHANMFPHLKKKAVIDFKSNGHIYDNRIVLNGIDLKAFLDSLPDVKIVKMKCPDGGDNADSSNTALNMPVIPMNTIAEAVIEMINRGQIQITINGFSISNGLATTQINNKAATGEEVPRTIIVTTRSQYGLPEDAIVYCNFNQLYKIDPSTLQMWANILKRVPNSVLWLLRFPAVGEPNIQQYAQNMGLPQNRIIFSPVAPKEEHVRRGQLADVCLDTPLCNGHTTGMDVLWAGTPMVTMPGETLASRVAASQLTCLGCLELIAKNRQEYEDIAVKLGTDLEYLKKVRGKVWKQRISSPLFNTKQYTMELERLYLQMWEHYAAGNKPDHMIKPVEVTESA
- binding [1]: no binding
- binding [2]: no binding

B2: mNRF1-Neh5L/AD2-His6 (Fr. 1; 243–430) (domain or fragment, UniProt Q61985 243-430)
chain: FPADVSSIPEAVPSESESPALQNSLLSPLLTGTESPFDLEQQWQDLMSIMEMQAMEVNTSASEILYNAPPGDPLSTNYSLAPNTPINQNVSLHQASLGGCSQDFSLFSPEVESLPVASSSTLLPLVPSNSTSLNSTFGSTNLAGLFFPSQLNGTANDTSGPELPDPLGGLLDEAMLDEISLMDLAIEE
- binding [3]: no binding

B3: mNRF1-Neh6L-His6 (Fr. 2; 431–580) (domain or fragment, mouse, UniProt Q61985 431-580, looked up)
chain: GFNPVQASQLEEEFDSDSGLSLDSSHSPSSLSSSEGSSSSSSSSSSSSASSSASSSFSEEGAVGYSSDSETLDLEEAEGAVGYQPEYSKFCRMSYQDPSQLSCLPYLEHVGHNHTYNMAPSALDSADLPPPSTLKKGSKEKQADFLDKQM
notes: NRF1, mouse, Neh6L domain, residues 431-580; The name is printed both as NRF1-Neh6L-His6 and as His6-NRF1-Neh6L; also called His6-NRF1-Neh6L; fragment 2; source: E. coli BL21(DE3), purified (Ni-NTA agarose)
- binding [3]: no binding
